Measurements from patent US20110237594A1, “FUNGICIDE HERETOCYCLYL-TRIAZINYL-AMINO DERIVATIVES” (priority 2008, published 2011).
Some results were stated once for a whole list of compounds, not compound by compound.

Test system: Alternaria solani
Assay: Alternaria test (tomato) / preventive
Type: in vivo
Conditions: 500 ppm of active ingredient, evaluated 7 days after inoculation

CCSCCNc1cc(-c2ncnc(Nc3ccc(OC)nc3)n2)ccn1 [Compound A4]
efficacy: ≥ 70%

COc1ccc(Nc2ncnc(-c3ccnc(NCCC(C)C)c3)n2)cn1 [Compound A11]
efficacy: ≥ 70%

COc1ccc(Nc2ncnc(-c3ccnc(NCCSC)c3)n2)cn1 [Compound A12]
efficacy: ≥ 70%
